The supplement of paper PMC4371806
Over roughly 2,300 compounds, “plate-normalized OD600 growth (mean of duplicates)” has its median near 0.29; the lowest 2% begin near 0.22. Some of the results follow.

Tested on: Escherichia coli BW25113
Assay: plate-normalized OD600 growth (mean of duplicates) (OD600 (normalized)); higher = more growth (less inhibition)
Details: 10 µM
Method: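 E. coli BW25113 in LB (100 µl, 96-well, no shaking) was exposed to 10 µM of each compound from a ~30,000-member library and grown at 37°C for 24 h or 15°C for 48 h, in duplicate. Growth was read as OD600 and the duplicate ODs were normalized across screening plates to correct plate-to-plate variation. Hits were >3σ below the mean OD600 at 15°C and <2σ below the mean at 37°C.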

SMILES | plate-normalized OD600 growth (temperature: 15°C, 48 h) | plate-normalized OD600 growth (temperature: 37°C, 24 h)
CC1(C)C(=O)C2(CCCCC2)C(=O)OC1c1ccc(F)cc1 (stereo not drawn) | 0.234 | 0.611
CCC(=O)OCCNc1ccc2noc3c2c1C(=O)c1ccccc1-3 | 0.232 | 0.633
O=C(Nc1ccc(Cl)cc1Cl)c1cnccn1 | 0.245 | 0.607
CCc1c(C)nc2[nH]nc(-c3ccccc3C)n2c1=O | 0.245 | 0.626
COc1ccc(N2C(=O)CC(SC(N)=Nc3ccccc3)C2=O)cc1 (stereo not drawn) | 0.253 | 0.626
CSCCC(NC(=O)c1ccccc1)C(=O)OCC(=O)Nc1ccccc1C#N (stereo not drawn) | 0.236 | 0.619
Cc1ccc(S(=O)(=O)NCC(=O)NCC(N)=O)cc1 | 0.244 | 0.614
CCCCCOc1ccc(NC(=O)c2cccnc2)cc1 | 0.251 | 0.615
Cc1cccc(NC(=O)COc2ccccc2C(=O)NCCNc2ccc([N+](=O)[O-])cc2)c1 | 0.209 | 0.656
O=[N+]([O-])c1ccc(C2=NN(c3ccccc3)C(c3ccco3)C2)cc1 (stereo not drawn) | 0.243 | 0.612
COc1ccc(-n2c3c(c(=O)[nH]c2=O)C(NC(=O)c2ccncc2)(C(F)(F)F)C(=O)N3)cc1 (stereo not drawn) | 0.256 | 0.623
Cc1oc(-c2ccccc2)cc1C(=O)N1CCN(c2ccc([N+](=O)[O-])cc2)CC1 | 0.265 | 0.667
Cc1cccc(NCN2C(=O)CCC2=O)n1 | 0.256 | 0.622
CCOc1c(/C=C2/SC(=Nc3ccccc3)N(Cc3ccccc3)C2=O)cccc1OC | 0.251 | 0.609
COc1ccc(C2CC(=O)N2C2(C(=O)Nc3c(C)cccc3C)CCCCC2)cc1OC (stereo not drawn) | 0.24 | 0.605
O=C(c1ccccc1)c1cc2c(cc1Br)OCCO2 | 0.246 | 0.645
O=[N+]([O-])c1ccc(N2CCOCC2)cc1 | 0.254 | 0.65
S=c1[nH]nc(SCCSc2n[nH]c(=S)s2)s1 | 0.257 | 0.616
COc1ccc(-c2cc(C(F)(F)F)n3nc(C(=O)Nc4ccc(F)c(Cl)c4)c(Cl)c3n2)cc1 | 0.232 | 0.644
O=C(Nc1ccccn1)NC(c1ccccc1Cl)P(=O)(Oc1ccccc1)Oc1ccccc1 (stereo not drawn) | 0.249 | 0.597
C1CCN(CCC2CCCCN2)CC1 (stereo not drawn) | 0.247 | 0.614
COc1ccc(-c2cc(C(F)(F)F)n3nc(C(=O)NC(C)(C)C)c(Cl)c3n2)cc1OC | 0.245 | 0.619
COc1ccc2nc(C(=O)O)sc2c1 | 0.241 | 0.633
N/C(=N/OC(=O)c1ccccc1)c1ccc(-c2csnn2)cc1 | 0.252 | 0.6
CSc1nc(N)n(-c2ccccc2)n1 | 0.251 | 0.618

SMILES | plate-normalized OD600 growth (temperature: 15°C, 48 h) | plate-normalized OD600 growth (temperature: 37°C, 24 h)
CC(/C=N\O)=N/Nc1ccccc1 | 0.253 | 0.612
CCOC(=O)c1c(Nc2ccccc2)sc([N+](=O)[O-])c1N | 0.268 | 0.634
Cc1cc(C)nc(SCC(=O)NCC(C)NC(=O)CSc2nc(C)cc(C)n2)n1 (stereo not drawn) | 0.243 | 0.61
CN1C(=O)N(C)C2(c3ccccc3)NN3C(=O)CSC3=NC12c1ccccc1 (stereo not drawn) | 0.242 | 0.59
C=C1N(c2ccccc2)C(=O)OC1(C)C | 0.244 | 0.62
COc1cc(C2Nc3cccc4cccc(c34)N2)cc(OC)c1OC | 0.233 | 0.636
O=C(O)C1c2ccccc2C(=O)N(Cc2ccc3c(c2)OCO3)C1c1cccnc1 (stereo not drawn) | 0.281 | 0.654
NC(=S)CS(=O)(=O)c1ccc(C(F)(F)F)cc1 | 0.252 | 0.631
Cc1oc(N=C/C=C/c2ccccc2)c(C#N)c1C | 0.256 | 0.644
Cc1cc(C)c(I)c(C)c1 | 0.254 | 0.611
Cc1ccc(NC(=O)c2ccc(Oc3ccc(C(=O)Nc4ccc(C)cc4C)cc3)cc2)c(C)c1 | 0.241 | 0.614
CCOC(=O)c1c(N)oc2c(-c3ccc(C)c(Cl)c3)c3c(C(=O)OCC)c(N)oc3cc12 | 0.218 | 0.622
COc1cc(CCNC(=O)OC(C)(C)C)c([S+]([O-])CSCc2ccccc2)cc1OC (stereo not drawn) | 0.238 | 0.613
CCN(CC)c1ccc(/C=C(\C#N)c2nc3ccc(C)cc3[nH]2)cc1[N+](=O)[O-] | 0.255 | 0.62
Cc1ccc2nsnc2c1S(=O)(=O)NCCC12CC3CC(CC(C3)C1)C2 | 0.24 | 0.621
NC(=O)C1CCN(C(=O)c2ccco2)CC1 | 0.25 | 0.628
O/N=C\c1sccc1Oc1ccccc1 | 0.254 | 0.635
S=c1[nH]c2ccccc2o1 | 0.242 | 0.646
O=S(=O)(c1cc(Br)c(Br)s1)N1CCCCC1 | 0.262 | 0.63
CCN=C(NCC)SC1CC(=O)N(c2ccc(C(=O)O)cc2)C1=O (stereo not drawn) | 0.246 | 0.617
OC(CNCCc1cccs1)COc1ccccc1 (stereo not drawn) | 0.251 | 0.641
Cn1c2ccccc2c2nnc(SCC(=O)Nc3nccs3)nc21 | 0.256 | 0.638
NC(=S)N/N=C\c1ccc(F)c(Cl)c1 | 0.282 | 0.62
CCOc1ccc(C(C)(C)C(=O)Nc2ccc(C(=O)/C=C/c3ccco3)cc2)cc1 | 0.266 | 0.639

Some of these compounds in order of number of heavy atoms, descending:
SMILES | plate-normalized OD600 growth (temperature: 15°C, 48 h) | plate-normalized OD600 growth (temperature: 37°C, 24 h)
CCOc1c(/C=C2/SC(=Nc3ccccc3)N(Cc3ccccc3)C2=O)cccc1OC | 0.251 | 0.609
COc1ccc(-c2cc(C(F)(F)F)n3nc(C(=O)NC(C)(C)C)c(Cl)c3n2)cc1OC | 0.245 | 0.619
O=C(O)C1c2ccccc2C(=O)N(Cc2ccc3c(c2)OCO3)C1c1cccnc1 (stereo not drawn) | 0.281 | 0.654
